Here are results for 42 sequences from paper PMC7819943, “Rice protein-binding microarrays: a tool to detect cis-acting elements near promoter regions in rice”.

Some of the results follow.

In this experiment the target is T1, OsSMF1 (Oryza sativa, UniProt Q6ZLB0 1-436).
T1 sequence: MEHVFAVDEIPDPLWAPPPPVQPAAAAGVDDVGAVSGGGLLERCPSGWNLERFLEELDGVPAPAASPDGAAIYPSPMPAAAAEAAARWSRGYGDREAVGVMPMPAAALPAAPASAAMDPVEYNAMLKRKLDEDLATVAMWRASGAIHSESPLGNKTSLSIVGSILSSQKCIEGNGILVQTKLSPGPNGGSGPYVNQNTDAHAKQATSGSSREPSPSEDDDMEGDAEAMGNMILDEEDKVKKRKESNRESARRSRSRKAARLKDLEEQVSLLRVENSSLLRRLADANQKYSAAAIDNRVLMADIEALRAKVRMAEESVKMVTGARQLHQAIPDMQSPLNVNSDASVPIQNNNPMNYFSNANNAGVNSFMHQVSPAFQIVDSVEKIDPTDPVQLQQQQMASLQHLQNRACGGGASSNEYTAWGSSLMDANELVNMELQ
Briefly: protein-binding microarray (RPBM); PBS, 2% BSA, 51.3 ng/ul salmon testes DNA, 50 uM zinc acetate, 200 nM TF, 25 C, 1 h; high values mean tight binding. The note with it: protein: recombinant; tags: N-terminal polyhistidine and DsRed monomer fusion (pET32a); chain copies: 2; label: CyDye5-dUTP incorporated in the synthesized complementary strand; 3' TTTTT single-stranded linker to array surface; dsDNA, one strand shown. Put shortly:
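Ni–NTA purification followed expression in E. coli BL21-CodonPlus of transcription factors fused N-terminally to a polyhistidine tag and DsRed. At 200 nM in PBS with 2% BSA, salmon testes DNA and 50 µM zinc acetate, the protein was incubated for 1 h at 25 °C with a custom Agilent array that had been primer-extended with Cy5-dUTP and blocked with 2% BSA. After washing, the array was read on an Axon 4000B scanner. The binding signal is per-feature fluorescence intensity in arbitrary units.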
With “GCTTTGACTACGCCCCGGAACGGAACGCATGCGTGCACCGCGGAGTCACCTAGTGCAG”, the binding signal was 3290 fluorescence intensity (a.u.).

Consider “TTGCATGGTCCAGTGCACCATGTCCACATCAACCAAGCAGCGGAGTCACCTAGTGCAG”, for which the binding signal was 3280 fluorescence intensity (a.u.). “CACGGAATTCAAACACACTGAGACCAATCAAACAGCCATGCGGAGTCACCTAGTGCAG”: the binding signal was 15800 fluorescence intensity (a.u.). On to “GAGGGTTTCCCACCCGCGAGAAGTCGGCGCTCCCCTCTTCCGGAGTCACCTAGTGCAG”, for which the binding signal is 3150 fluorescence intensity (a.u.).

Take “TCCTATCGATCCCGATGACGTAGGTCCCATCCATTGATTTCGGAGTCACCTAGTGCAG”: the binding signal is 8590 fluorescence intensity (a.u.). The result for “CGAGCGTGCCGTCATCGTGCATCCATTGGTGCTTCTCCCGCGGAGTCACCTAGTGCAG” reads 3910 fluorescence intensity (a.u.); that for “AATCATGTGCATGATTCATCAACAGCTAATGACAAGGATTCGGAGTCACCTAGTGCAG”, 4160 fluorescence intensity (a.u.); that for “CGCCGCTGCGGCCGAACCAGTACGTGGAGGTGTACCTGTTCGGAGTCACCTAGTGCAG”, 3720 fluorescence intensity (a.u.). For “AATCAAACTTTCAATTTTAGCGTGAACTAAACACACCCTTCGGAGTCACCTAGTGCAG”, the binding signal is 3680 fluorescence intensity (a.u.).

With “ATAATGAACAATTTCTTTCCAAGCTACATGTAGACCAGAGCGGAGTCACCTAGTGCAG”, the binding signal is 40100 fluorescence intensity (a.u.).

Turning to “AGTTTTACTGTGCATTGCTTTGCTGCTCTGTGTTTTGTGGCGGAGTCACCTAGTGCAG”, the binding signal was 3870 fluorescence intensity (a.u.). On to “AGTACACTTTTGCAGTCCAAGTGTCCAACTAATCCAGCTGCGGAGTCACCTAGTGCAG”, for which the binding signal is 3270 fluorescence intensity (a.u.). The value for “AATACTGTCTAACTCAGGAGTGAATCATGACTCCATGCAACGGAGTCACCTAGTGCAG” was 3520 fluorescence intensity (a.u.); that for “GACCCGTCGTTGGGTTACGTGGACTTTCTCCTATTTTGAACGGAGTCACCTAGTGCAG” was 6890 fluorescence intensity (a.u.); that for “GAGACGAGGAGGAAGAAGAAGCGAGCGAAGCTTGTGTTGGCGGAGTCACCTAGTGCAG” was 26500 fluorescence intensity (a.u.). For the sequence “AGAACAAAGCAAGCATGGAGAGATCAGCACTAACAATGGCCGGAGTCACCTAGTGCAG”, the binding signal was 3240 fluorescence intensity (a.u.). “TGGCGATGGTTCGGCCACCGTCACCCTTCCCCTGCCCTTACGGAGTCACCTAGTGCAG”: the binding signal is 3230 fluorescence intensity (a.u.). As for “GAGGAGGTCGAAGATGGCAGTGACGATGACGGTGGGGTTGCGGAGTCACCTAGTGCAG”, the binding signal was 4140 fluorescence intensity (a.u.).

In the case of “TTTAGAGGACCGACCACCGCCACGTGGCAGCACGGCCGATCGGAGTCACCTAGTGCAG”, the binding signal was 12000 fluorescence intensity (a.u.). Take “TGGGATTGAGACCTTGCGTGAGGCTCATTGTTGTTGGGCCCGGAGTCACCTAGTGCAG”: the binding signal was 6890 fluorescence intensity (a.u.). The result for “TTTGATTCGAAGCGTCAGCTGCTGCTGATTTCTGAGTTTTCGGAGTCACCTAGTGCAG” reads 4190 fluorescence intensity (a.u.); that for “AAGCACTGTCCGTGCGACGTCACCTCGCCCACGCAAGACGCGGAGTCACCTAGTGCAG”, 7620 fluorescence intensity (a.u.); that for “CCGGGCCATCGCCAGCTCGGCGCCACGTGGCACTCCTCCCCGGAGTCACCTAGTGCAG”, 24600 fluorescence intensity (a.u.).

Take “ACAGACAGACAGCTCCAACCAACACTTGCACGCTCAATCGCGGAGTCACCTAGTGCAG”: the binding signal was 3400 fluorescence intensity (a.u.). For “CAAACAAAACAATAAGACGACCGAAAAGCCTTGCAAGCAACGGAGTCACCTAGTGCAG”, the binding signal was 26000 fluorescence intensity (a.u.). “GCCCGTGGCCCACGGCCGCTTTGCTTCGCCACGATACCCGCGGAGTCACCTAGTGCAG”: the binding signal was 4700 fluorescence intensity (a.u.). In the case of “GTGTTGTTGTTGTTGCTGCTGCGTTGGTGTCTCGTCGACGCGGAGTCACCTAGTGCAG”, the binding signal is 3370 fluorescence intensity (a.u.). For the sequence “CACTTAACCGTTGGGCTAAATGCCAGCCGATGGCTTCTCTCGGAGTCACCTAGTGCAG”, the binding signal is 3650 fluorescence intensity (a.u.). The value for “TGGGCCATCAATCCTCTCTTTCCCTCTCTTCCCTTCCTTGCGGAGTCACCTAGTGCAG” was 30400 fluorescence intensity (a.u.); that for “TTTGCTGGTCAAATTAAACGATGCGCATCCACGTTTGACGCGGAGTCACCTAGTGCAG” was 3960 fluorescence intensity (a.u.); that for “GTTCGATGCATCTCGCCACCATGACGTGTACCGCGAAAGACGGAGTCACCTAGTGCAG” was 17400 fluorescence intensity (a.u.). Regarding “TGGAAGTTATATAGCTATATTTATGATGCTACGTGGCTTCCGGAGTCACCTAGTGCAG”, the binding signal is 7060 fluorescence intensity (a.u.). In the case of “CGCGGTCGACCCACCGTCTGCCACGTCAGCTTGCTGCCCACGGAGTCACCTAGTGCAG”, the binding signal was 25600 fluorescence intensity (a.u.). Take “TAAATAAAAGACACATGATTTCTGTGGGATAACTTTGTATCGGAGTCACCTAGTGCAG”: the binding signal was 3500 fluorescence intensity (a.u.). The value for “GGTGAAGACGCTGATTCGTCTCAAACAAGTGATGACGACGCGGAGTCACCTAGTGCAG” was 3220 fluorescence intensity (a.u.). For the sequence “CTATGTAGCGTGAGATCCTCTGCCGTCGACGCCATCTTCTCGGAGTCACCTAGTGCAG”, the binding signal was 3320 fluorescence intensity (a.u.). The result for “ACTCCAAGTAGCTCGCTCTACGTAATGAACTGTATGTACCCGGAGTCACCTAGTGCAG” reads 4040 fluorescence intensity (a.u.). The result for “CCCGGCGTCGGTGAGCTCCTCCCTGCCAACCGCCACCCTTCGGAGTCACCTAGTGCAG” reads 4320 fluorescence intensity (a.u.); that for “CCGCAACGTCTCGTTGTCGTCGTCACCGGATAAGCATTGGCGGAGTCACCTAGTGCAG”, 4440 fluorescence intensity (a.u.). Take “TATGTGCTTTCACTAGATAATATGTGTGAATGACATGGCGCGGAGTCACCTAGTGCAG”: the binding signal is 8740 fluorescence intensity (a.u.). The result for “AGAGGTTCAAACTGTATATGTTCTAGACCATTCACAAGCTCGGAGTCACCTAGTGCAG” reads 64100 fluorescence intensity (a.u.); that for “GAAGCAGTCTCGTAGCTCCTCGTAGCTACCACACCAACACCGGAGTCACCTAGTGCAG”, 3170 fluorescence intensity (a.u.).
